The values that follow come from PubChem BioAssay AID977622 (Broad Institute, 2014).

A short description of assay [1]: wild-type E. coli growth inhibition versus h38 humanized strain – h38 mutant RFP, wild-type GFP, cherry-pick, dose response (AID 977622). Particulars: E. coli mixed culture, 24 h, total growth OD600 at 50 uM.
Assay [2] has as its system E. coli h38 humanized mutant ribosome RFP fluorescence, mixed culture, 24 h. The assay is described as above. The settings on record: h38 mutant RFP at 50 uM.

This is one part of the list. These are further read-outs of the screen, such as a control signal, another cell line or another target. No call is given for them.

For the compound `O=C(NCCc1csc(-c2ccccc2)n1)c1ccccc1F`, the results for the activity change in assay [1] and in assay [2] were -41.4% and -24.2%, respectively. On to `Cc1c(C(=O)O)oc2ccc(S(=O)(=O)NC3CCCCCCC3)cc12`, for which the activity change in assay [1] was -39%. In the case of `c1ccc(-c2nc(-c3cccnc3)cs2)cc1`, the figures for the activity change in assay [1] and in assay [2] were -16.4% and -7.12%, respectively. In the case of `Cc1ncoc1C(=O)NCCC(c1ccccc1)c1ccccc1`, the activity change in assay [1] is -26.9%; in assay [2], -32.4%. `COC(=O)c1c(NC(=O)CCC(=O)O)sc(Cc2ccccc2)c1C`: in assay [1], the activity change is -67.8%. As for `CC(C)(C)c1ccc2c(c1)C(c1ccc3c(c1)OCO3)CC(=O)O2` (stereo not given), the activity change in assay [2] is -23.1%. With `Cc1nc(C)c(-c2ccn(S(=O)(=O)c3ccc(Cl)cc3)n2)o1`, the activity change in assay [1] is -47.4%. With `O=C1C(c2ccccc2)c2ccccc2N1Cc1ccccc1` (stereo not given), the activity change in assay [1] is -40.4%; in assay [2], -17.3%.

Take `CN(Cc1ccc(Cl)s1)C(=O)CNC(=O)CNC(=O)c1ccc(Cl)cc1Cl`: the activity change in assay [1] is -39.4%; in assay [2] it was 9.3%. Turning to `O=C(C[C@H]1CC[C@H](NC(=O)Nc2ccccc2F)[C@H](CO)O1)NCc1ccc(-c2ccccc2)cc1`, the activity change in assay [1] is -15.9%; in assay [2], -3.88%.

For the compound `COc1ccc(OC)c(Nc2nc(N)c([N+](=O)[O-])c(N3CCOCC3)n2)c1`, the activity change is -17.8% in assay [1] and -9.94% in assay [2]. Consider `CC1(C(=O)NS(=O)(=O)c2cccs2)CCN1C(=O)C1(c2ccc(Cl)cc2)CCC1` (stereo not given), for which the activity change in assay [1] is -5.17%; in assay [2], -13.6%.

In the case of `CS(=O)(=O)NCCSc1cc(C(F)(F)F)nc2ccccc12`, the activity change in assay [1] is -46.4%; in assay [2], 14.1%. With `O=C(Nc1ccccc1Cl)N1C[C@H]2[C@@H](c3ccccc31)[C@@H](CO)N2Cc1ccccc1`, the activity change is -90.5% in assay [1] and 10.5% in assay [2]. In the same order, the values of `CNC[C@H]1OCCCC[C@@H](C)Oc2ccc(NC(=O)Nc3cccc4ccccc34)cc2C(=O)N([C@@H](C)CO)C[C@H]1C` are 7.83% and 22.3%. Consider `COc1ccc(-n2cc(-c3ccccc3)c3c(N4CCOCC4)ncnc32)cc1`, for which the activity change was -69.8% in assay [1] and -6.11% in assay [2].

For `CC(=O)Nc1cccc2c1Cc1cc([N+](=O)[O-])ccc1-2`, the activity change in assay [1] was -24.6%; in assay [2], -13.8%. For `CCN(c1ccccc1)S(=O)(=O)c1ccc(Cl)c(C(=O)NCc2ccco2)c1`, the activity change in assay [1] is -66.4%. With `O=C1N2c3ccccc3CCc3cccc(c32)C1(O)C(F)(F)F` (stereo not given), the activity change in assay [1] is -64.6%; in assay [2] it was -23.9%. In the same order, the values of `CCOC(=O)c1sc(Nc2cccc(Cl)c2)nc1C` are -22.9% and -32.1%. In the case of `O=C(NC1CCCCC1)C(c1cccc2ccccc12)n1c(=O)c(-c2ccco2)nc2ccccc21` (stereo not given), the activity change in assay [1] is -3.58%; in assay [2] it was 15%. On to `C=CCn1c(-c2cc3cccc(OC)c3o2)n[nH]c1=S`, for which the activity change in assay [1] was -25.3%. Take `O=C(CC(=O)c1cccs1)c1ccncc1`: the activity change is -24.7% in assay [1] and -17.7% in assay [2].

For `COc1cc(C(N)=O)cc(Br)c1OCc1ccccc1`, the activity change in assay [1] was -54.4%; in assay [2], 3.25%. `CCC(=O)N(CCC(c1ccco1)C(C)C)Cc1ccccc1` (stereo not given): the activity change in assay [1] is -45.3%; in assay [2], 22.8%. In the case of `Cc1cc(NC(=O)CN2CCN(c3cccc(Cl)c3)CC2)no1`, in assay [1], the activity change was -10.9%. Take `Cc1noc(C)c1NC(=O)N(C)C[C@H]1OCCCC[C@@H](C)Oc2ccc(NC(=O)Nc3cccc4ccccc34)cc2C(=O)N([C@@H](C)CO)C[C@H]1C`: the activity change in assay [1] is -12.2%; in assay [2], -8.28%. Regarding `O=C(CCS(=O)(=O)c1ccccc1)Nc1ncc([N+](=O)[O-])s1`, the activity change in assay [1] is -45.2%; in assay [2], -55.8%. Turning to `CN(C)C(=O)c1cccc(-c2ccc(C3[C@H]4CNC[C@@H]3N4S(=O)(=O)c3ccccc3F)cc2)c1` (stereo not given in full), the activity change in assay [1] stood at 1.46%; in assay [2] it was 21%. For the compound `CC(CCC(=O)O)C1CC[C@@]2(C)C3C(=O)CC4C(C)(C)C(O)CC[C@]4(C)C3C(=O)C[C@]12C` (stereo not given in full), the activity change in assay [1] is -22.8%. Consider `COc1ccc(OC)c(NC(=O)COC(=O)c2c3c(nc4ccccc24)CCCC3)c1`, for which the activity change in assay [1] is -58.8%; in assay [2] it was -28.6%. Consider `O=C(O)CNC(=O)C(c1ccccc1)c1ccccc1`, for which the figures for the activity change in assay [1] and in assay [2] were 0.857% and 40.6%, respectively. Take `COc1ccc(-c2csc(NC(=O)CC(NC(C)=O)c3ccccc3)n2)cc1OC` (stereo not given): the figures for the activity change in assay [1] and in assay [2] were -51.6% and -16.1%, respectively. Turning to `Cc1cccc(CSCC(=O)N2CCN(S(=O)(=O)c3ccccc3C#N)CC2)c1`, the activity change in assay [1] is -38.9%; in assay [2], 0.057%. Consider `COc1ccc(NC(=O)c2cccs2)cc1C(=O)N1CCN(c2ccccc2)CC1`, for which the values for the activity change in assay [1] and in assay [2] were -31.1% and -25.7%, respectively. For `Oc1ccccc1Oc1ncc(Br)c(Cl)n1`, in that order: -67.5% and -9.48%. Turning to `CC(=O)Nc1ccc(S(=O)(=O)Nc2cccc(-c3nc4cc(C)ccc4o3)c2)cc1`, the activity change in assay [1] is -49.4%; in assay [2], -19.9%.

Regarding `CSc1ccccc1NC(=O)CN(c1cccc(C)c1)S(C)(=O)=O`, the activity change was -10.3% in assay [1] and 14.7% in assay [2]. For `Cc1cc(C)c(OCCNC(=O)c2ccccc2Sc2ccccc2C#N)c(C)c1`, the activity change in assay [1] is -37.4%; in assay [2], 40.4%.

Regarding `COc1cc2c(cc1OC)CN(CC(=O)Nc1ccccc1SC)CC2`, the activity change in assay [1] was -19.2%; in assay [2], -12.3%. For `O=C(c1ccccc1)N1CCN(c2ccc([N+](=O)[O-])c(NCC3CCCO3)c2)CC1` (stereo not given), in that order: -4.86% and 0.149%. On to `CSc1ccc(CN(C)CC(=O)NC(C)c2ccccc2)cc1` (stereo not given), for which the activity change was -15.5% in assay [1] and 43.8% in assay [2]. `CC1(C(=O)NCCc2c[nH]c3ccccc23)CCN1CC1CCCCC1` (stereo not given): the figures for the activity change in assay [1] and in assay [2] were -87.4% and 57.3%, respectively. In the case of `CCN(C(=O)COC(=O)c1ccc([N+](=O)[O-])o1)c1cccc2ccccc12`, the results for the activity change in assay [1] and in assay [2] were -11.8% and -24%, respectively. Turning to `O=C1CCCCC1Nc1ccc(Br)cc1` (stereo not given), the activity change in assay [1] was -34.8%; in assay [2], -30%.

Take `Cn1cc([N+](=O)[O-])c(C(=O)Nc2ccc(-c3nc4ccccc4[nH]3)cc2)n1`: the activity change in assay [1] was -38.9%; in assay [2], -7.05%. In the case of `Nc1nn(-c2ccccc2)c2ccc([N+](=O)[O-])cc12`, the activity change in assay [1] was determined as 5.35%; in assay [2], 2.17%. Take `Nc1nc(=S)ss1`: the activity change in assay [1] is -18.6%; in assay [2] it was -32.2%. Consider `COC(=O)c1c(-c2ccc(OC)cc2)sc2cc(OC)c(OC)cc12`, for which the activity change in assay [1] was -46.1%; in assay [2] it was -40.7%.

For `O=c1[nH]c(C2CCCN(S(=O)(=O)c3ccccc3Cl)C2)nc2c1nnn2Cc1ccc2c(c1)OCCO2` (stereo not given), the figures for the activity change in assay [1] and in assay [2] were -24.2% and -4.63%, respectively. For the compound `Brc1ccccc1Cn1c(-c2cncs2)nc2ccccc21`, the activity change in assay [1] was -8.66%; in assay [2], -8.85%. As for `Cc1c(Cc2ccc3c(c2)OCO3)sc(NC(=O)C2CC2)c1C(N)=O`, the activity change in assay [1] was -61.7%; in assay [2], -17.8%. As to `CN1C(=O)c2cc(NC(=O)c3cccc(F)c3)ccc2OC[C@H]2O[C@@H](CC(=O)N3CCc4ccccc4C3)CC[C@@H]21`, the activity change is -32% in assay [1] and -21.5% in assay [2].

As to `CN1CCN(c2nc(-c3cccnc3)nc3scc(-c4ccccc4)c23)CC1`, the activity change in assay [1] is -88.6%. As to `O=C(Nc1ccc2c(c1)OCCO2)C1C(c2ccccc2)=Nc2ccccc2N1C(=O)c1cccnc1` (stereo not given), the results for the activity change in assay [1] and in assay [2] were -10.1% and 0.574%, respectively. Take `COc1cccc(S(=O)(=O)N2CCCCN3[C@H](C2)[C@@H](c2ccc(C#CC(C)C)cc2)[C@@H]3CO)c1`: the activity change in assay [1] was -6.89%; in assay [2], -3.86%.

Take `Cc1cccc(-n2cnc3cc([N+](=O)[O-])ccc32)c1`: the activity change in assay [1] is -4.88%; in assay [2], -5.01%.
